Assay results taken from paper PMC12197943.
No constants are given. Whether binding was seen depends on the method and setting. In cells and extracts the contact can be indirect. A result given as binding can be weak or reduced; the word gives no strength.

Target: GP2a-mCherry (PRRSV-2 strain CH-1a)
Assay: co-IP; GP2a with autophagy receptors (SQSTM1/p62, NDP52, TOLLIP, NBR1, OPTN); cells, tags and precipitating antibody not told

B1: NDP52 (protein, UniProt Q13137 1-446)
chain: MEETIKDPPTSAVLLDHCHFSQVIFNSVEKFYIPGGDVTCHYTFTQHFIPRRKDWIGIFRVGWKTTREYYTFMWVTLPIDLNNKSAKQQEVQFKAYYLPKDDEYYQFCYVDEDGVVRGASIPFQFRPENEEDILVVTTQGEVEEIEQHNKELCKENQELKDSCISLQKQNSDMQAELQKKQEELETLQSINKKLELKVKEQKDYWETELLQLKEQNQKMSSENEKMGIRVDQLQAQLSTQEKEMEKLVQGDQDKTEQLEQLKKENDHLFLSLTEQRKDQKKLEQTVEQMKQNETTAMKKQQELMDENFDLSKRLSENEIICNALQRQKERLEGENDLLKRENSRLLSYMGLDFNSLPYQVPTSDEGGARQNPGLAYGNPYSGIQESSSPSPLSIKKCPICKADDICDHTLEQQQMQPLCFNCPICDKIFPATEKQIFEDHVFCHSL
- binding: binds weakly
